Measurements reported in PubChem BioAssay AID1508597 (Cure First, 2020)
Shown is a random part of the about 2,100 reagents, in one setting of the screen. 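Calls flag viability under 80% in either arm, not effects specific to rucaparib; the reference for percent is not stated.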 A reagent listed more than once was tested more than once; the source does not tell the runs apart. Not given: the 100% reference.

- Assay: 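Survival screen with siRNA in ovarian cancer cells derived from patients, with or without rucaparib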 (primary screen)
- Cell system: human ovarian carcinoma lines grown from tumours: OCI-P5x (papillary serous) and OCI-C5x (clear cell)
- Reagent: siRNA pool against human genes, 1.25 pmol siRNA per well
- Duration: 72 h or 96 h, depending on the cell culture
- Conditions: rucaparib 20 µM (about IC30) or vehicle, present until read-out
- Rucaparib or vehicle: Rucaparib
- Cell line: OCI-C5x (clear cell)
- Detection: 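Luminescent ATP-based viability assay read 72 or 96 h after transfection, depending on culture, given as normalised percent viability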
- Direction: viability, normalised: higher = more viable cells remaining
- Call rule: 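a well counts as a hit if its normalised viability is under 80 percent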
- Calls: active = viability under 80%; inactive = viability 80% or more

Target gene | technical replicate | viability, normalised (%) | call
BCOR | 1 | 64.2 | active
BCOR | 2 | 60.9 | active
BCOR | 3 | 61.7 | active
PIP5K1B | 1 | 41.7 | active
PIP5K1B | 2 | 32.3 | active
PIP5K1B | 3 | 44.8 | active
DDX28 | 1 | 49.1 | active
DDX28 | 2 | 38.2 | active
DDX28 | 3 | 36.2 | active
DGUOK | 1 | 45.7 | active
DGUOK | 2 | 46.6 | active
DGUOK | 3 | 54.1 | active
RAG1 | 1 | 56.5 | active
RAG1 | 2 | 50.9 | active
RAG1 | 3 | 32.4 | active
MACROD1 | 1 | 52.1 | active
MACROD1 | 2 | 55.5 | active
MACROD1 | 3 | 49.9 | active
PTK6 | 1 | 56.2 | active
PTK6 | 2 | 45.4 | active
PTK6 | 3 | 61.5 | active
USP22 | 1 | 81.6 | inactive
USP22 | 2 | 53.6 | active
USP22 | 3 | 50.5 | active
CSMD3 | 1 | 64.1 | active
CSMD3 | 2 | 67.7 | active
CSMD3 | 3 | 72.4 | active
SMYD4 | 1 | 51.2 | active
SMYD4 | 2 | 44.2 | active
SMYD4 | 3 | 69.3 | active
MED11 | 1 | 35.9 | active
MED11 | 2 | 31 | active
MED11 | 3 | 41 | active
HELLS | 1 | 43 | active
HELLS | 2 | 35 | active
HELLS | 3 | 47.2 | active
PRKD3 | 1 | 63.7 | active
PRKD3 | 2 | 66.6 | active
PRKD3 | 3 | 63.7 | active
CACNA1A | 1 | 59.2 | active
CACNA1A | 2 | 36.3 | active
CACNA1A | 3 | 48.2 | active
TAOK3 | 1 | 55.4 | active
TAOK3 | 2 | 87.2 | inactive
TAOK3 | 3 | 75 | active
MGMT | 1 | 52.4 | active
MGMT | 1 | 49.8 | active
MGMT | 2 | 44.6 | active
MGMT | 2 | 48.3 | active
MGMT | 3 | 49.5 | active
MGMT | 3 | 60.6 | active
BRD9 | 1 | 42 | active
BRD9 | 2 | 45.7 | active
BRD9 | 3 | 34.7 | active
MYBL1 | 1 | 51.7 | active
MYBL1 | 2 | 49.2 | active
MYBL1 | 3 | 49.3 | active

Not a retest: 6 of the entries above.
Target gene | technical replicate | viability, normalised (%) | call
MACROD1 | 3 | 49.9 | active
PTK6 | 1 | 56.2 | active
PTK6 | 2 | 45.4 | active
PTK6 | 3 | 61.5 | active
USP22 | 1 | 81.6 | inactive
USP22 | 2 | 53.6 | active
